Laboratory results from publication doi:10.1101/2025.10.26.684634.
Results are given in words; binding and its absence hold for the method and conditions named. Some results given as binding are weak or reduced against the parent protein; the word gives no strength. For some of these results: Where a sequence is shown, tags or fusion partners need not be part of it.

Tests used:
Test in all cases: cross-linking
[1] = target: Recombinant His6-ExoU (Pseudomonas aeruginosa Exotoxin U, full length) (Pseudomonas aeruginosa) (UniProt O34208)
[2] = target: T1, Recombinant His6-ExoU (Pseudomonas aeruginosa Exotoxin U, full length) (Pseudomonas aeruginosa), O34208; conditions: remark: other sources report otherwise
T1 chain: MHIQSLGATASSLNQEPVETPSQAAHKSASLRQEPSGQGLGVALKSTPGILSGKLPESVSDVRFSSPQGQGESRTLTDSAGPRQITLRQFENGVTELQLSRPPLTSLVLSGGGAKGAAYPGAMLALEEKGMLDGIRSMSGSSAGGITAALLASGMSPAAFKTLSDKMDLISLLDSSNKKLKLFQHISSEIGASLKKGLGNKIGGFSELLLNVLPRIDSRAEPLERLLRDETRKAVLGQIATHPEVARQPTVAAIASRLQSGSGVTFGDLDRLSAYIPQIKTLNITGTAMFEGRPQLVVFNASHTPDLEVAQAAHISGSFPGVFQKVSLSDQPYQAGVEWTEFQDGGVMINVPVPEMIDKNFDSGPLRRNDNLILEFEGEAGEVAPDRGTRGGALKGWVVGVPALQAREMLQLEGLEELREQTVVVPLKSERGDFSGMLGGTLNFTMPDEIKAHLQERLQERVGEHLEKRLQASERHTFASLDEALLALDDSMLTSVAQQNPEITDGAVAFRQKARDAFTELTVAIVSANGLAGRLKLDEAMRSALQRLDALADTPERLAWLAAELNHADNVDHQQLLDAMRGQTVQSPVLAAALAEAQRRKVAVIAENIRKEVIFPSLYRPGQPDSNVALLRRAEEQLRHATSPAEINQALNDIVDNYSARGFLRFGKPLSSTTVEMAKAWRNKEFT

[3] = target: T1, Recombinant His6-ExoU (Pseudomonas …); conditions: remark: other sources report otherwise
[4] = target: T1, Recombinant His6-ExoU (Pseudomonas …); conditions: remark: other sources report otherwise

Recombinant His6-ExoU (Pseudomonas aeruginosa Exotoxin U, full length) (from UniProt O34208 1-687) (enzyme)
binding [1]: binds weakly

B1: Recombinant His6-ExoU (Pseudomonas aeruginosa Exotoxin U, full length), O34208 1-687 (enzyme)
chain: MHIQSLGATASSLNQEPVETPSQAAHKSASLRQEPSGQGLGVALKSTPGILSGKLPESVSDVRFSSPQGQGESRTLTDSAGPRQITLRQFENGVTELQLSRPPLTSLVLSGGGAKGAAYPGAMLALEEKGMLDGIRSMSGSSAGGITAALLASGMSPAAFKTLSDKMDLISLLDSSNKKLKLFQHISSEIGASLKKGLGNKIGGFSELLLNVLPRIDSRAEPLERLLRDETRKAVLGQIATHPEVARQPTVAAIASRLQSGSGVTFGDLDRLSAYIPQIKTLNITGTAMFEGRPQLVVFNASHTPDLEVAQAAHISGSFPGVFQKVSLSDQPYQAGVEWTEFQDGGVMINVPVPEMIDKNFDSGPLRRNDNLILEFEGEAGEVAPDRGTRGGALKGWVVGVPALQAREMLQLEGLEELREQTVVVPLKSERGDFSGMLGGTLNFTMPDEIKAHLQERLQERVGEHLEKRLQASERHTFASLDEALLALDDSMLTSVAQQNPEITDGAVAFRQKARDAFTELTVAIVSANGLAGRLKLDEAMRSALQRLDALADTPERLAWLAAELNHADNVDHQQLLDAMRGQTVQSPVLAAALAEAQRRKVAVIAENIRKEVIFPSLYRPGQPDSNVALLRRAEEQLRHATSPAEINQALNDIVDNYSARGFLRFGKPLSSTTVEMAKAWRNKEFT
binding [2]: binds
binding [3]: binds
binding [4]: binds
